According to the supplement of paper PMC10727501:
The list shows a part of the results. This data set is noisy: repeats of one test often differ as much as different tests do.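 Free-swimming zebrafish larvae were assessed for O-bend response probability to dark flashes (naive: first five; training: remaining flashes across four 60-flash blocks; test: later 60-flash block) and for OMR turning toward alternating leftward/rightward LED motion. Six treated larvae were compared against sixty 0.1% DMSO controls; hits required |SSMD|≥2.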

Tests used:
Settings in all cases: 10 µM; pre-incubation: 30-90 min
[1] = tested on: Danio rerio larvae (5 dpf, TLF); test: OMR-Perf (SSMD vs DMSO vehicle); higher = higher than vehicle (e.g. higher dark-flash O-bend response probability, or better optomotor performance)
[2] = tested on: Danio rerio larvae (5 dpf, TLF); test: Prob-Test (SSMD vs DMSO vehicle); higher = higher than vehicle (e.g. higher dark-flash O-bend response probability, or better optomotor performance)
[3] = tested on: Danio rerio larvae (5 dpf, TLF); test: Prob-Naive (SSMD vs DMSO vehicle); higher = higher than vehicle (e.g. higher dark-flash O-bend response probability, or better optomotor performance)
[4] = tested on: Danio rerio larvae (5 dpf, TLF); test: Prob-Train (SSMD vs DMSO vehicle); higher = higher than vehicle (e.g. higher dark-flash O-bend response probability, or better optomotor performance)

Row | Structure (SMILES) | OMR-Perf [1] | Prob-Test [2] | Prob-Naive [3] | Prob-Train [4]
1 | COc1cc(Nc2ncc(F)c(Nc3ccc4c(n3)NC(=O)C(C)(C)O4)n2)cc(OC)c1OC [R406 (free base)] | -0.184 | -0.251 | 0.173 | -0.212
2 | CC[C@H](C)C(=O)O[C@H]1CCC=C2C=C[C@H](C)[C@H](CC[C@H]3C[C@@H](O)CC(=O)O3)[C@H]21 [Mevastatin] | -0.195 | -1.7 | 0.584 | -1.21
3 | CC1(C)[C@@H](O[C@H]2O[C@H](C(=O)O)[C@@H](O)[C@H](O)[C@@H]2O[C@@H]2O[C@H](C(=O)O)[C@@H](O)[C@H](O)[C@H]2O)CC[C@@]2(C)[C@H]3C(=O)C=C4[C@@H]5C[C@@](C)(C(=O)O)CC[C@]5(C)CC[C@@]4(C)[C@]3(C)CC[C@@H]12.N [Ammonium Glycyrrhizinate] | 0.618 | -0.358 | 0.47 | 0.0903
4 | O=C(NC1CCNCC1)c1n[nH]cc1NC(=O)c1c(Cl)cccc1Cl | 0.407 | 0.79 | -0.043 | -0.298
5 | CCCc1cc(C(N)=S)ccn1 [Protionamide] | 0.0515 | -0.391 | -0.048 | -0.167
6 | COC(=O)C1=CO[C@@H](O[C@@H]2O[C@H](CO)[C@@H](O)[C@@H](O)[C@H]2O)[C@H]2C(CO)=CC[C@H]12 [Geniposide] | 0.04 | 0.497 | 0.208 | 0.154
7 | NS(=O)(=O)c1cc2c(cc1Cl)N=CNS2(=O)=O [Chlorothiazide] | 0.287 | -0.302 | 0.26 | 0.487
8 | CC1(C)CCC(C)(C)c2cc(NC(=O)c3ccc(C(=O)O)cc3)ccc21 [Tamibarotene] | 0.561 | 0.87 | 0.134 | 0.691
9 | CCCC(CCC)C(=O)[O-].[Na+] [Valproic acid sodium salt (Sodium valproate)] | -0.774 | -1.05 | -0.409 | -0.786
10 | CN1CCC(=C2c3ccccc3C=Cc3ccccc32)CC1.Cl [Cyproheptadine HCl] | 0.292 | -1.53 | -1.02 | -1.15
11 | CC(C)C(=O)Oc1ccc(CO)cc1[C@H](CCN(C(C)C)C(C)C)c1ccccc1.O=C(O)/C=C\C(=O)O [Fesoterodine Fumarate] | 0.12 | -0.453 | 0.486 | -0.18
12 | C[C@]12CC[C@H]3c4ccc(O)cc4CC[C@H]3[C@@H]1CC[C@H]2O [Estradiol] | 0.256 | -0.044 | 0.121 | -0.848
13 | COc1ccc(CCN(C)CCCC(C#N)(c2ccc(OC)c(OC)c2)C(C)C)cc1OC.Cl (configuration not stated) [Verapamil HCl] | -0.102 | 0.0101 | -0.865 | -1.06

Sorted by formula weight (largest number first): some entries from above.
Row | Structure (SMILES) | OMR-Perf [1] | Prob-Test [2] | Prob-Naive [3] | Prob-Train [4]
1 | COc1cc(Nc2ncc(F)c(Nc3ccc4c(n3)NC(=O)C(C)(C)O4)n2)cc(OC)c1OC [R406 (free base)] | -0.184 | -0.251 | 0.173 | -0.212
2 | CC[C@H](C)C(=O)O[C@H]1CCC=C2C=C[C@H](C)[C@H](CC[C@H]3C[C@@H](O)CC(=O)O3)[C@H]21 [Mevastatin] | -0.195 | -1.7 | 0.584 | -1.21
6 | COC(=O)C1=CO[C@@H](O[C@@H]2O[C@H](CO)[C@@H](O)[C@@H](O)[C@H]2O)[C@H]2C(CO)=CC[C@H]12 [Geniposide] | 0.04 | 0.497 | 0.208 | 0.154
